Some of the results follow.
compound: C1=CC=C(C=C1)[C@H](COC2=CC3=C(C=C2)NC(=O)N3)NC(=O)C4=CC=CN(C4=O)CC5=CC(=C(C=C5)F)F; experiment: log2 fold change, soluble protein after heating vs DMSO (PISA); higher = thermal stabilisation; K562 cells, 10 uM, 30 min; active = over 0.2 and 3.5 SD of the protein, either way, in both replicates (recomputed)
Outline: (§1)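 Quantification of soluble protein used TMTpro 16plex LC-MS/MS, with channel sums equalised. Samples were the supernatant after 21,000xg for 90 min of pooled aliquots from K562 cells (2×10^6 cells/mL) treated with 10 μM compound for 30 min, heated for 3 min over 48°C-58°C, and extracted in PBS with 0.5% NP-40 at 4°C. Values, from duplicates, describe thermal stability against control samples on a log2 fold-change scale.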

By UniProt entry, the sequences of proteins in these tests, tags left out. Where a name states a change or a piece, a line headed by the entry shows the natural chain unless it says otherwise.
UniProt Q15843, whole entry, looked up: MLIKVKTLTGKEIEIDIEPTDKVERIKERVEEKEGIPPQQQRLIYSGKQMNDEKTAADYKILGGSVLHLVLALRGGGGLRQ
UniProt Q969V3: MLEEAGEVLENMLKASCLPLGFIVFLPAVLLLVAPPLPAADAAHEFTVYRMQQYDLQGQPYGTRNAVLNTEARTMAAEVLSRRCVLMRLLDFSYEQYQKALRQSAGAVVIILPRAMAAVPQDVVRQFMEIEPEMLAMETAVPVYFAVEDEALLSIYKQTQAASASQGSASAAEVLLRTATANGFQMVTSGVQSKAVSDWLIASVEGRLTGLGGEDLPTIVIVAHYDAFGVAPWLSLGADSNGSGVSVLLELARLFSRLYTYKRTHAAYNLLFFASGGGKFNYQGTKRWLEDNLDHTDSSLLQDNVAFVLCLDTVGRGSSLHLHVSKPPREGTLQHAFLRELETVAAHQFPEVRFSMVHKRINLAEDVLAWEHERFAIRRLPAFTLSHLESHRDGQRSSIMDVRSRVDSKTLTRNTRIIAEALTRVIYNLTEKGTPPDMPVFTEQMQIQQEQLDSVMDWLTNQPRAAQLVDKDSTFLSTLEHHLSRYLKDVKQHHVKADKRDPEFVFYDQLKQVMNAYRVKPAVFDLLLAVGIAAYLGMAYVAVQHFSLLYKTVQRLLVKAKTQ
NA, A0A494C071, UniProt A0A494C071, whole entry, looked up: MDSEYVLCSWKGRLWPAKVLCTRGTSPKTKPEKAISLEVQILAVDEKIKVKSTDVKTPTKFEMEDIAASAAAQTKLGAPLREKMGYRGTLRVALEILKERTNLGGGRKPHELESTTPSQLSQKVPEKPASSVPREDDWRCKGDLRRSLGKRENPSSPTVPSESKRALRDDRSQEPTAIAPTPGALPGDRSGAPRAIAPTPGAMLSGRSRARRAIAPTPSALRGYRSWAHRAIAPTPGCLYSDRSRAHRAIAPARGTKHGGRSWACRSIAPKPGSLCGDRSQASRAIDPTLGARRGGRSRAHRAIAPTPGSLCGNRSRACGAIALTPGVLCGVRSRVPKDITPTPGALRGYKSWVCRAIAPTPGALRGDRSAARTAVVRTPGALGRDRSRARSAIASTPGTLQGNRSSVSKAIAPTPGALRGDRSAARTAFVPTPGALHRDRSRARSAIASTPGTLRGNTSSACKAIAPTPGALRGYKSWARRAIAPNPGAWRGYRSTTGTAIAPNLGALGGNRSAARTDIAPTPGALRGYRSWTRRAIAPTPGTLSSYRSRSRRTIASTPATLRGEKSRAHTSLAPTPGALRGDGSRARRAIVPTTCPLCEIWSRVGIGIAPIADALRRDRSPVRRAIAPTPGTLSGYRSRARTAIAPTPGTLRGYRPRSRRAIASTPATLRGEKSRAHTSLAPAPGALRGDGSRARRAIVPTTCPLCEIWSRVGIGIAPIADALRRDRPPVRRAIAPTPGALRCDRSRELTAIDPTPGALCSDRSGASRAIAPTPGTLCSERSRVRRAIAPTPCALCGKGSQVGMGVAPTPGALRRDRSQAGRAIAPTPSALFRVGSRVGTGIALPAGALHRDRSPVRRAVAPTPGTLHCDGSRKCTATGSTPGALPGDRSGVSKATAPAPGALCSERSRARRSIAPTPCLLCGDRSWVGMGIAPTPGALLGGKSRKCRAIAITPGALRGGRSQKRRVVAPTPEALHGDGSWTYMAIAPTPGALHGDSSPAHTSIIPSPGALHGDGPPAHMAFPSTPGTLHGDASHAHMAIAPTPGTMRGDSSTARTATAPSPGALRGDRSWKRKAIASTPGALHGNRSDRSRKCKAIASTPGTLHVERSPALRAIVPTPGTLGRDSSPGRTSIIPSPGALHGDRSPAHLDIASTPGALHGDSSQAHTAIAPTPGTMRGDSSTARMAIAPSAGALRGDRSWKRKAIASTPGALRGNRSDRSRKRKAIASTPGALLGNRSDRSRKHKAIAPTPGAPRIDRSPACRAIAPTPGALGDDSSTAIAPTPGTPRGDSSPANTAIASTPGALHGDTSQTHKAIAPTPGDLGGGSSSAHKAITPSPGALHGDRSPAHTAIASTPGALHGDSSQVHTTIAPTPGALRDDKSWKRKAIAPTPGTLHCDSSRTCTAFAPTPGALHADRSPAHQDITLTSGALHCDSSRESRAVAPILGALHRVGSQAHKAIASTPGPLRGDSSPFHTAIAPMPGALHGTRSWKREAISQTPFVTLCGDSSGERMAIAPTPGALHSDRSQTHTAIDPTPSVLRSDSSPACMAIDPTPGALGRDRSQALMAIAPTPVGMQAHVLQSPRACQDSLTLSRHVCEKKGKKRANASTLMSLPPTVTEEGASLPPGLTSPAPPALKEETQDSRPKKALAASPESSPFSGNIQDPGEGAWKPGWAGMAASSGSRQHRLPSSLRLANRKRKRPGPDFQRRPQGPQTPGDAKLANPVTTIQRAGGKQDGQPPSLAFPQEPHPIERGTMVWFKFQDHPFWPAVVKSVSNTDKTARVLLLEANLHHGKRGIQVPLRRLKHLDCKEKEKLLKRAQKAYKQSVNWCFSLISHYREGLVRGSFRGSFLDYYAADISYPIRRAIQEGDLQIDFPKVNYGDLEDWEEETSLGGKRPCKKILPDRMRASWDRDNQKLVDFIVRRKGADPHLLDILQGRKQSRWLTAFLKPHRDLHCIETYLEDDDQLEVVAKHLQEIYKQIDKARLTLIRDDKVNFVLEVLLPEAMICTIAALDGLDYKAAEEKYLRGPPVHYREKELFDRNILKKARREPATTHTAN
UniProt O95544: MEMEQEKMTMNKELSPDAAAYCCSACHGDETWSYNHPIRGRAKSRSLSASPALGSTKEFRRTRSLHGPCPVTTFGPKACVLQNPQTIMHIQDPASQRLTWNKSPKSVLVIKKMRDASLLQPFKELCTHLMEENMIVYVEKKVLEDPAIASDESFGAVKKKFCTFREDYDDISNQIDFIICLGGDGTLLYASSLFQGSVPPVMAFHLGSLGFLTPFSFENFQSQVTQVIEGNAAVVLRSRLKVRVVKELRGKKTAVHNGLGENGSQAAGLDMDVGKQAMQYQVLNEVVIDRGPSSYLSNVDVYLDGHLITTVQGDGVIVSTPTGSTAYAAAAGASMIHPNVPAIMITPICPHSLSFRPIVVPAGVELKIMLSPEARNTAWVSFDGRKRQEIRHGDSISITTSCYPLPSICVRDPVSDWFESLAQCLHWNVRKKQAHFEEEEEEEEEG
UniProt O75380, whole entry, looked up: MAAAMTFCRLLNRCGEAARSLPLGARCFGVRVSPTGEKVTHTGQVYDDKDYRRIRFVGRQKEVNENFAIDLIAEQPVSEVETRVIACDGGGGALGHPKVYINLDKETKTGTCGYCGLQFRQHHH
UniProt Q15021, whole entry, looked up: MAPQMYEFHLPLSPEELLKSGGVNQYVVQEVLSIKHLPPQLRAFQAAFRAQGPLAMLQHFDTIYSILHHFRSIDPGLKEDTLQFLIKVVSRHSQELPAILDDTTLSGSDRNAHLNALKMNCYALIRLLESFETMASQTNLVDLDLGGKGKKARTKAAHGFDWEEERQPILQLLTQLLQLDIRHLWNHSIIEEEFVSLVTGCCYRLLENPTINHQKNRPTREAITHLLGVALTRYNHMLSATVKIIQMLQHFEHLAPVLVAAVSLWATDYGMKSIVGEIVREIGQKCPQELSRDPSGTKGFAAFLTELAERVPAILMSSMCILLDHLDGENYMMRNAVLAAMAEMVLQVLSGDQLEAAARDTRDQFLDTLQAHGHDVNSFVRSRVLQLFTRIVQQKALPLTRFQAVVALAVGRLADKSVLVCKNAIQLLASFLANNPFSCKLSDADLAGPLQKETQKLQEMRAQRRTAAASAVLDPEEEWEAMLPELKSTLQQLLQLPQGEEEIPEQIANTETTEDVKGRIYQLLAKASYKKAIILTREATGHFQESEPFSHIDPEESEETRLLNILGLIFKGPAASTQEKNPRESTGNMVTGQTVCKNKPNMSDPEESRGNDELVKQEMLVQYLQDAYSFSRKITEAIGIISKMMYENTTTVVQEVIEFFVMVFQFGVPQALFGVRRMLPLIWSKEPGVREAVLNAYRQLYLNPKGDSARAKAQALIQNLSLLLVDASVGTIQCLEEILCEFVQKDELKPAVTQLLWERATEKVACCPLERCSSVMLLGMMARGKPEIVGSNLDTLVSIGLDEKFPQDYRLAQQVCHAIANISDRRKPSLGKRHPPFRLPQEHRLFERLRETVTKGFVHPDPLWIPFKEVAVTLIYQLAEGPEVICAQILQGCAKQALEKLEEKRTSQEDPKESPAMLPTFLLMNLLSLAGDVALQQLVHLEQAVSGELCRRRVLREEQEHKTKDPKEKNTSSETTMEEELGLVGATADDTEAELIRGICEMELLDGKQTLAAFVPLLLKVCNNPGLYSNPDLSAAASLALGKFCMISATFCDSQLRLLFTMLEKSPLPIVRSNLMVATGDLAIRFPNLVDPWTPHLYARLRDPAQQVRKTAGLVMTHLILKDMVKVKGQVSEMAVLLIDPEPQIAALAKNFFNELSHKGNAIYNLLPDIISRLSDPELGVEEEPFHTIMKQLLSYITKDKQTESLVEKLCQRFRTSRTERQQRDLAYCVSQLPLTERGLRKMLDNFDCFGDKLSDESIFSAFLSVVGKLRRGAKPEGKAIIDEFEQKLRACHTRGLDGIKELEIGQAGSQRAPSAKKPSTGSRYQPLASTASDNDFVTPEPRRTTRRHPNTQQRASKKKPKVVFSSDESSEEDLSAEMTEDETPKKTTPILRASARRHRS
UniProt O43674, whole entry, looked up: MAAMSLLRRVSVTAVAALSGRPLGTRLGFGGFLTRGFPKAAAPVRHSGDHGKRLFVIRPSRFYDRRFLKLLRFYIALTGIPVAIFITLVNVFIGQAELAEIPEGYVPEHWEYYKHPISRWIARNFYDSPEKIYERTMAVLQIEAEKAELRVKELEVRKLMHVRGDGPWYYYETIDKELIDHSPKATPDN
UniProt O95182, whole entry, looked up: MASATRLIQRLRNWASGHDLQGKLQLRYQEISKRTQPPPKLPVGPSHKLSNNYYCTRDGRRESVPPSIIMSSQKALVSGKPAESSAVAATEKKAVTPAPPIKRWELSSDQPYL
UniProt O43920, whole entry, looked up: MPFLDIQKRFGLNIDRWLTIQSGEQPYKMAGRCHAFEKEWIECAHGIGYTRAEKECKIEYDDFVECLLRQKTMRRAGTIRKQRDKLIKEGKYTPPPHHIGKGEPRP
UniProt Q6P582, whole entry, looked up: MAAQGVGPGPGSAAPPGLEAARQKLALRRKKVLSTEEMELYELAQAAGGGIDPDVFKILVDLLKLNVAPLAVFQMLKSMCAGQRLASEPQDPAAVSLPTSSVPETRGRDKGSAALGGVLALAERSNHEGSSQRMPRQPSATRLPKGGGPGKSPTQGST
UniProt Q9Y375: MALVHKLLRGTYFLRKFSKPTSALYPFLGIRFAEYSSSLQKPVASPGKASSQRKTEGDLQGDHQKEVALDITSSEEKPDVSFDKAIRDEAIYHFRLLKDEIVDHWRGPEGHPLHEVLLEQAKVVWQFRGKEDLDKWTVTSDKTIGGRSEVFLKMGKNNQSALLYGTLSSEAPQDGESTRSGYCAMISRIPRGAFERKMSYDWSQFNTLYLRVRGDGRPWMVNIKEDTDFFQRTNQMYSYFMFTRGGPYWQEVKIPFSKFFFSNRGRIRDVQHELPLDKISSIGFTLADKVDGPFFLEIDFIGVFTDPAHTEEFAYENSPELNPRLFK
UniProt Q330K2: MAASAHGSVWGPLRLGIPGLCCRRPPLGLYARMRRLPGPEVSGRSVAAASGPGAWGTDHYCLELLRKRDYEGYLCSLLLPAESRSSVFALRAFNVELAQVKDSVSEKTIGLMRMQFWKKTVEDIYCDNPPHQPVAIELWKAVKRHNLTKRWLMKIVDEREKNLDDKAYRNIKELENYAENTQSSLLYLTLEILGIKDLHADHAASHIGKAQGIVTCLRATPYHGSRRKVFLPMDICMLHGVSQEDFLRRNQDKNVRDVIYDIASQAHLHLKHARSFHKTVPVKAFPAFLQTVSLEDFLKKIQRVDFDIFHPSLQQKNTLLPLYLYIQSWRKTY
UniProt Q16718, whole entry, looked up: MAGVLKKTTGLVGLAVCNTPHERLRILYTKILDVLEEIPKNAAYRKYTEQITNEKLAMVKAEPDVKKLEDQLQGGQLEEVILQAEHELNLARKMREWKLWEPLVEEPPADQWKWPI
UniProt Q99733: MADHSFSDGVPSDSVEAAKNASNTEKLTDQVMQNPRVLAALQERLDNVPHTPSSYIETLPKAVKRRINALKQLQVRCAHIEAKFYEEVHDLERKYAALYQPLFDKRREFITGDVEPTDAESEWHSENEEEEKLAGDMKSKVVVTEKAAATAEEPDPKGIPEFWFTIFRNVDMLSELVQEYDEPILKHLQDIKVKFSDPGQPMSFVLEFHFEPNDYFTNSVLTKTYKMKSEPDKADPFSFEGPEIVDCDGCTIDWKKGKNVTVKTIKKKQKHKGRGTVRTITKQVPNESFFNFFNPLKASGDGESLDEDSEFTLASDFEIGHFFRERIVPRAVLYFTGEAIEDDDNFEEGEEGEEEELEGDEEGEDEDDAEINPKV
UniProt Q9P0J0, whole entry, looked up: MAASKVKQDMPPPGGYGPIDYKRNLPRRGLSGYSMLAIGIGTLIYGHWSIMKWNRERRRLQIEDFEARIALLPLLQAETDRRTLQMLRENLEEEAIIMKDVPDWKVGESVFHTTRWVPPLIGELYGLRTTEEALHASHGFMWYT

Target | log2 fold change
NEDD8 (UniProt Q15843) | inactive: -0.005
NANS (UniProt Q9NR45) | inactive: -0.031
NAA35 (UniProt Q5VZE5) | inactive: -0.012
NCLN (UniProt Q969V3) | inactive: 0.02
NA, A0A494C071 | inactive: -0.172
NADK (UniProt O95544) | inactive: -0.006
NARS2 (UniProt Q96I59) | inactive: 0
NDUFS6 (UniProt O75380) | inactive: 0.072
NCALD (UniProt P61601) | inactive: -0.018
NAPRT (UniProt Q6XQN6) | inactive: -0.002
NACC1 (UniProt Q96RE7) | inactive: -0.029
NDUFA10 (UniProt O95299) | inactive: -0.023
NDUFAB1 (UniProt O14561) | inactive: 0.022
NCAPD2 (UniProt Q15021) | inactive: -0.078
NDUFB5 (UniProt O43674) | inactive: 0.008
NDUFA7 (UniProt O95182) | inactive: 0.007

Target | log2 fold change
NDUFS5 (UniProt O43920) | inactive: 0.036
MZT2A (UniProt Q6P582) | inactive: 0.008
MYO9B (UniProt Q13459) | inactive: -0.062
NDUFAF1 (UniProt Q9Y375) | inactive: 0.084
NASP (UniProt P49321) | inactive: -0.009
NAT10 (UniProt Q9H0A0) | inactive: 0.01
NDUFB10 (UniProt O96000) | inactive: 0.048
NDUFAF6 (UniProt Q330K2) | inactive: -0.048
NDUFA5 (UniProt Q16718) | inactive: 0.033
NCS1 (UniProt P62166) | inactive: 0.005
NAP1L4 isoform 2 (UniProt Q99733) | inactive: 0.011
NAE1 (UniProt Q13564) | inactive: -0.04
NCAPH (UniProt Q15003) | inactive: -0.067
NCOR2 (UniProt C9J0Q5) | inactive: -0.019
NCAPD3 (UniProt P42695) | inactive: 0.034
NDUFA13 (UniProt Q9P0J0) | inactive: 0.012

compound: CC1=C(SC2=C1C(=N[C@H](C3=NN=C(N32)C)CC(=O)N)C4=CC=C(C=C4)Cl)C; experiment: as above
Outline: as §1

Target | log2 fold change
NEDD8 (UniProt Q15843) | inactive: 0.098
NANS (UniProt Q9NR45) | inactive: 0.065
NAA35 (UniProt Q5VZE5) | inactive: 0.051
NCLN (UniProt Q969V3) | inactive: -0.003
NA, A0A494C071 | inactive: -0.016
NADK (UniProt O95544) | inactive: 0.029
NARS2 (UniProt Q96I59) | inactive: 0.057
NDUFS6 (UniProt O75380) | inactive: -0.111
NCALD (UniProt P61601) | inactive: 0.062
NAPRT (UniProt Q6XQN6) | inactive: -0.003
NACC1 (UniProt Q96RE7) | inactive: 0.039
NDUFA10 (UniProt O95299) | inactive: -0.001
NDUFAB1 (UniProt O14561) | inactive: -0.034
NCAPD2 (UniProt Q15021) | inactive: 0.04
NDUFB5 (UniProt O43674) | inactive: 0.019
NDUFA7 (UniProt O95182) | inactive: 0.002

Target | log2 fold change
NDUFS5 (UniProt O43920) | inactive: -0.02
MZT2A (UniProt Q6P582) | inactive: 0.051
MYO9B (UniProt Q13459) | inactive: -0.012
NDUFAF1 (UniProt Q9Y375) | inactive: 0.02
NASP (UniProt P49321) | inactive: 0.049
NAT10 (UniProt Q9H0A0) | inactive: -0.156
NDUFB10 (UniProt O96000) | inactive: 0.009
NDUFAF6 (UniProt Q330K2) | inactive: 0.003
NDUFA5 (UniProt Q16718) | inactive: 0.139
NCS1 (UniProt P62166) | inactive: 0.052
NAP1L4 isoform 2 (UniProt Q99733) | inactive: -0.007
NAE1 (UniProt Q13564) | inactive: 0.018
NCAPH (UniProt Q15003) | inactive: 0.011
NCOR2 (UniProt C9J0Q5) | inactive: -0.035
NCAPD3 (UniProt P42695) | inactive: -0.03
NDUFA13 (UniProt Q9P0J0) | inactive: 0.045

— the supplement of paper PMC10849652
